Results as given in paper PMC10163288.
The list shows a part of the results.

B1: il2ra_site1_1z92_sap_18_mot_HHH_b2_06343_000000059_0001_18_35_H_._HHH_b1_02126_af2_0001_0000100002_0000001_0_0001 (protein)
chain: SLEELIEEAERRGNPDVALLVRDAARALQLGLPPEKIKMVLERAAERAGIPPESLEEAKEIVEKG
B2: il2ra_site1_3nfp_sap_11_mot_HHH_b1_03420_af2_000000029_0001_41_57_H_._HHH_b1_02046_0001_0000100001_0000001_0_0001 (protein)
chain: SDEKVARWLTRDIEKRAGVPSVEVEVKDGTITLHVEGDDESAELAEEIFEWFAERSGIPFSVEKH
B3: il2ra_site2_3nfp_sap_20_mot_HHH_b1_02297_000000279_0001_41_58_H_._HHH_b1_01225_0001_0000100006_0000001_0_0001 (protein)
chain: SSSSSSDREEVEELLEEARQIEDEEEVEQILLRAASIAWELNDFELYAAVSEVDRELLSSSSSSS
B4: il2ra_site1_1z92_sap_15_mot_HHH_b2_06855_af2_000000074_0001_38_49_H_._HHH_b2_08011_0001_0000400015_0000001_0_0001_af2pred_0001_af2pred_1_swapped (protein)
chain: PEELAEEAKRLLKNGNPEEAEKVLEKLAKELGSEEAFKRDLEQAEKFFGNPEQALLALIRALARQ
B5: il2ra_site2_2erj_normal_mot_HHH_b1_03107_000000098_0001_39_52_H_._HHH_b2_00515_af2_0001_0000100011_0000001_0 (protein)
chain: SSSSDENWEAVAELLIEARKALKRGDEELVKELLREAKEVAEEGNNPAAKRYVEYVERDASSSSS
B6: il2ra_site2_2erj_sap_31_mot_HHH_b1_03572_af2_000000146_0001_41_56_H_._HHH_b2_06539_af2_0001_0000200005_0000001_0_0001 (protein)
chain: SSSSDELEERIEELLEELEKLVKEGDLARVLELAREIAELLRRLGDPELAKELNRLLQEAMSSSS
B7: il2ra_site1_2b5i_normal_mot_HHH_b2_04910_000000118_0001_1_19_H_._HHH_b1_00058_af2_0001_0000600017_0000001_0_af2pred_dldesign_0_af2pred (protein)
chain: SSSSSKKEEALRLFLEADELFQAGKAEEAKEKLEKARELAKEAGANLLVKIIDSALEDLESSSSS
B8: il2ra_site1_3nfp_sap_10_mot_HHH_b1_01159_af2_000000075_0001_1_20_H_._HHH_b1_01573_af2_0001_0000600012_0000001_0_0001_af2pred_0001_af2pred_1 (protein)
chain: SSSSDVEKEVEELLEEAEEALKNGDPEEALRLFEEARRLARENDDPELIRAVFKVLKEILSSSSS
B9: il2ra_site2_2erj_sap_26_mot_HHH_b2_00434_000000253_0001_22_38_H_._HHH_b2_02288_0001_0000100001_0000001_1_0001 (protein)
chain: SSSSDEELRRLFELASELMHALANGDEELAEEILEEIQKLAEELNTPRALEMAEEAFRLGSSSSS
B10: il2ra_site2_2erj_normal_mot_HHH_b1_07975_000000039_0001_41_57_H_._HHH_b1_00128_0001_0000400033_0000001_0 (protein)
chain: SSSSLEELYELAVLLLELIQNKDEEEFRKVLEEAERLAKETNNPNVEEMLEALEENFELLLSSSS
B11: il2ra_site2_2erj_normal_mot_HHH_b1_00612_000000025_0001_42_56_H_._HHH_b2_04071_0001_0000800020_0000001_0_af2pred_0001_af2pred (protein)
chain: SSSSSEEEELEELLEELKELLKEGDFERAREVTERIIRLALENNDPEVAELALRLLYEAASSSSS
B12: il2ra_site1_3nfp_sap_13_mot_57b9a5c33dea5cc23bad37243f109f8e_0001_af2_000000027_0001_36_50_H_._490c46be001311c379c03e06fdb6e4f5_0001_1_0001_0000300028_0000001_0 … (protein)
chain: SAAEFLVRALLRHGKPPEEILRQLREIAEQNGRPPEEVLREILEVAREVGDPELEELVEKELEET
B13: il2ra_site1_2b5i_normal_mot_HHH_b1_01495_af2_000000272_0001_42_56_H_._HHH_b1_03012_0001_0000300012_0000001_0_af2pred_dldesign_0_af2pred (protein)
chain: SSSSDEEYERAYDLALEALRLKREGKKEEAKEKLEEALRLLKKLGDEKLVAEVEYLLSKLSSSSS
B14: il2ra_site2_3nfp_sap_10_mot_HHH_b1_07830_000000093_0001_36_50_H_._HHH_b2_02492_0001_0000200013_0000001_0_0001 (protein)
chain: SSSDKAEEYVRLAEELAREALEEGDPEAARRHLELAELMIESQGDEEAQERLEELLEEVERRSSS
B15: il2ra_site2_2erj_normal_mot_HHH_b2_00484_af2_000000139_0001_42_55_H_._HHH_b1_00676_0001_0000600026_0000001_0 (protein)
chain: SSSSSDYEEIARRVSELLAELAHASEEERRRLLEEARELAEELNSPFLERYVEHARRHASSSSSS
B16: il2ra_site1_1z92_sap_26_mot_a6fd39a3fea750eb5223871b70f163d0_0001_af2_000000011_0001_17_33_H_._HHH_b2_07469_0001_0000200014_0000001_0_0001_af2pred_0001_af2pred_ … (protein)
chain: DELERLIEEILEELKKRDPQMEWAIRIIEKALKRDPRQAAKLLLRFLRNAGDPELVKELEELLRK
B17: il2ra_site1_2b5i_normal_mot_f5ff40796168375b462bec8614a1db4a_0001_1_000000138_0001_53_65_H_._HHH_b2_01775_0001_0000200012_0000001_0_af2pred_0001_af2pred_1 (protein)
chain: SSSSSTDAEHNIEALIEEAKKIEDPERARNILFLALAIARKKNNEELAEEIEELLEELDSSSSSS
B18: il2ra_site1_1z92_normal_mot_HHH_b2_05172_af2_000000284_0001_1_18_H_._HHH_b1_04814_0001_0000100013_0000001_0 (protein)
chain: SSSDYEVQEELAQIISRLVAEFGLDLEQIKKLDELARELEERGVSLEEIEELLEELAEELKSSSS
B19: il2ra_site2_2erj_normal_mot_HHH_b2_06291_af2_000000033_0001_23_39_H_._HHH_b2_06475_0001_0000500037_0000001_0_af2pred_0001_1_af2pred_swapped (protein)
chain: SSSSSEAEEAFELARELVEEGDLRRAAAVAVRAAAAALEEGDEELLKQIRKLYAELAELLRSSSS
B20: il2ra_site1_3nfp_sap_9_mot_HHH_b1_04931_000000291_0001_38_56_H_._HHH_b2_06296_af2_0001_0000400019_0000001_0_0001_af2pred_0001_af2pred_swapped (protein)
chain: SSSSSHSREFERLAKEASELLKKGDPEKVEELLERLREIAEEANSPNAKEFVERLERLIKSSSSS
B21: il2ra_site1_2b5i_sap_29_mot_21795611afd35a64f51a6f0208d15af2_0001_af2_000000256_0001_37_51_H_._e3696887754c6fba9273a780f7a942e0_0001_0001_0000700056_0000001_1_0 … (protein)
chain: SSSSSSARARELLLRAEAALKAGNREELARLLAELEALAEARNSRFARRALELLREALSSSSSSS
B22: il2ra_site2_2erj_normal_mot_HHH_b1_02757_000000121_0001_41_57_H_._HHH_b1_00883_0001_0000100001_0000001_0_af2pred_0001_1_af2pred_swapped (protein)
chain: SSSSSSSDEEEVEELLEEAKKIKDPREALKLLQEAAQIADENDNDELIKLIDELLQESSSSSSSS
B23: il2ra_site2_3nfp_sap_16_mot_HHH_b1_04084_000000061_0001_23_39_H_._HHH_b1_01148_af2_0001_0000100002_0000001_0_0001_af2pred_0001_1_af2pred_swapped (protein)
chain: PDWELVEEVAKILGDPQFRSIVFAAVAELVFKGDEEELKKISEKLKEIVEKNDPELARELLEELK
B24: il2ra_site1_2b5i_normal_mot_22370d59370c406a0c205a431f537cfa_0001_af2_000000027_0001_1_31_H_._HHH_b2_08220_af2_0001_0000400025_0000001_0_af2pred_dldesign_0_af2p … (protein)
chain: SSSSNKKELAKFAADLVDELADKYKLDSERANALDRLAAELVWKGYSKEEIRERLTAEALKSSSS

biological target: il2ra, P01589; assay: yeast display titration

Apparent Kd, inactive:
B1 no binding seen
B2 no binding seen
B3 no binding seen
B4 no binding seen
B5 no binding seen
B6 no binding seen
B7 no binding seen
B8 no binding seen
B9 no binding seen
B10 no binding seen
B11 no binding seen
B12 no binding seen
B13 no binding seen
B14 no binding seen
B15 no binding seen
B16 no binding seen
B17 no binding seen
B18 no binding seen
B19 no binding seen
B20 no binding seen
B21 no binding seen
B22 no binding seen
B23 no binding seen
B24 no binding seen

Reprinted at random: two records from the list, in no set order.
Apparent Kd, inactive:
B24 no binding seen
B20 no binding seen
